Laboratory results reported in US20090143279A1 (priority 2007, published 2009).
Values joined by “and” are separate entries in the source; they are usually repeats but may differ in a detail not shown here. Identical values can stand only once. Like-named read-outs stand apart in the source and are kept apart here. At least one read-out could not be matched to a standard name with certainty.

Tests used:
[1] = system: cellular dehydrogenase activity
reactive oxygen species = format: cell-based, mouse
nuOXPHOS transcripts = format: cell-based, mouse
mtOXPHOS transcripts = format: cell-based, mouse
OXPHOS gene expression = format: cell-based, mouse
[2] = system: mitochondrial membrane potential; format: cell-based, mouse
[3] = composite Z-score vs mock-treated (DMSO) wells, concentration of each compound in μM
[4] = normalized score (composite Z-score vs DMSO mock-treated wells), compound concentration (μM)

Row | Structure (SMILES) | MTT [1] | Viability (C2C12 myotubes) | ROS (reactive oxygen species) | nucOX (nuOXPHOS transcripts) | mitoOX (mtOXPHOS transcripts) | GE-HTS (OXPHOS gene expression) | ΔΨm [2] | MTT [1, 3] | Viability (C2C12 myotubes; [3]) | ROS (reactive oxygen species; [3]) | nucOX (nuOXPHOS transcripts; [3]) | mitoOX (mtOXPHOS transcripts; [3]) | GE-HTS (OXPHOS gene expression; [3]) | ΔΨm [2, 3] | further results
1 | CC(N)C(O)c1ccccc1 (stereo not shown) [phenylpropanolamine] | −0.396 | −0.373 | 0.552 | 0.541 | 0.267 | 0.487 | −0.650 | – | – | – | – | – | – | – | –
2 | CC[C@H]1OC(=O)[C@H](C)C(=O)[C@H](C)[C@@H](O[C@@H]2O[C@H](C)C[C@H](N(C)C)[C@H]2O)[C@](C)(OC)C[C@@H](C)C(=O)[C@H](C)[C@H]2N(CCCCn3cnc(-c4cccnc4)c3)C(=O)O[C@]12C [telithromycin] | – | – | – | – | – | – | – | −1.062 | 0.318 | 0.922 | −0.624 | −0.079 | −0.489 | −0.146 | –
3 | C[C@H]1CC[C@]2(NC1)O[C@H]1C[C@H]3[C@@H]4CC[C@H]5C[C@@H](O)CC[C@]5(C)[C@H]4CC[C@]3(C)[C@H]1[C@@H]2C [tomatidine] | – | – | – | – | – | – | – | −0.985 | −0.422 | 0.586 | 0.010 | −0.443 | −0.158 | −0.311 | –
4 | CC[C@H](C)C(=O)O[C@H]1C[C@H](O)C=C2C=C[C@H](C)[C@H](CC[C@@H](O)C[C@@H](O)CC(=O)O)[C@H]21 [pravastatin, reference compound] | – | – | – | – | – | – | – | −1.703 | −0.787 | 1.093 | −0.508 | −0.890 | −0.671 | −0.625 | –
5 | C[C@@H]1O[C@@H](OC[C@H]2O[C@@H](Oc3c(-c4ccc(OCCO)c(OCCO)c4)oc4cc(OCCO)cc(O)c4c3=O)[C@H](O)[C@@H](O)[C@@H]2O)[C@H](O)[C@H](O)[C@H]1O [troxerutin] | – | – | – | – | – | – | – | −1.235 | −0.194 | 0.153 | −1.161 | −1.059 | −1.220 | −0.072 | –
6 | CCn1cc(C(=O)O)c(=O)c2cnc(N3CCNCC3)nc21 [pipemidic acid] | 0.331 | −0.296 | 0.743 | −0.001 | 0.009 | 0.006 | −0.613 | – | – | – | – | – | – | – | –
7 | C[C@]12CCC(=O)C=C1C=C[C@@H]1[C@@H]2CC[C@@]2(C)[C@H]1CC[C@@]21CCC(=O)O1 [canrenone] | – | – | – | – | – | – | – | −0.644 | 0.025 | −0.063 | −0.842 | −0.123 | −0.663 | −0.307 | –
8 | CCc1nc(N)nc(N)c1-c1ccc(Cl)cc1 [pyrimethamine] | −1.597 | −0.974 | 3.264 | 0.622 | 0.202 | 0.534 | −1.370 | – | – | – | – | – | – | – | –
9 | CC(C)(Sc1cc(C(C)(C)C)c(O)c(C(C)(C)C)c1)Sc1cc(C(C)(C)C)c(O)c(C(C)(C)C)c1 [probucol] | −1.514 | −1.116 | 0.627 | 0.396 | 0.076 | 0.311 | −0.459 | – | – | – | – | – | – | – | –
10 | Oc1ccc2c3c1O[C@H]1[C@@H](O)CC[C@@]4(O)[C@@H](C2)N(CC2CCC2)CC[C@]314 [nalbuphine] | −1.511 | −1.422 | 0.042 | −0.124 | −0.342 | −0.210 | −0.919 | – | – | – | – | – | – | – | MTT (composite Z-score vs DMSO) [1]: −1.290; Viability (composite Z-score vs DMSO) (C2C12 myotubes): −1.178; ROS (composite Z-score vs DMSO) (reactive oxygen species): 0.441; nucOX (composite Z-score vs DMSO) (nuOXPHOS transcripts): 0.696; mitoOX (composite Z-score vs DMSO) (mtOXPHOS transcripts): −0.637; GE-HTS (composite Z-score vs DMSO) (OXPHOS gene expression): 0.285; ΔΨm (composite Z-score vs DMSO) [2]: −0.208
11 | CC(C)NCC(O)c1cc(O)cc(O)c1 (stereo not shown) [metaproterenol] | −1.595 | 0.116 | 0.539 | 0.165 | −0.393 | −0.021 | −1.153 | – | – | – | – | – | – | – | –
12 | COc1c(O[C@@H]2O[C@H](CO)[C@@H](O)[C@H](O)[C@H]2O)cc2c(c1OC)-c1ccc(SC)c(=O)cc1[C@@H](NC(C)=O)CC2 [thiocolchicoside] | – | – | – | – | – | – | – | −0.850 | −0.498 | 1.037 | −0.099 | −0.282 | −0.170 | −0.168 | –
13 | CCCCCCCC/C=C/CCCCCCCCOP(=O)([O-])OCC[N+](C)(C)C [elaidylphosphocholine] | – | – | – | – | – | – | – | −0.962 | −0.314 | 0.720 | −0.352 | −0.618 | −0.464 | −0.415 | –
14 | O=CC=Cc1ccc(O)cc1 [p-hydroxycinnamaldehyde] | – | – | – | – | – | – | – | −1.942 | −1.650 | 0.120 | −1.113 | −0.889 | −1.097 | −0.918 | –
15 | CC1(C)[C@@H](OC(=O)CCC(=O)O)CC[C@]2(C)[C@H]3C(=O)C=C4[C@@H]5C[C@@](C)(C(=O)O)CC[C@]5(C)CC[C@@]4(C)[C@]3(C)CC[C@@H]12 [carbenoxolone] | −1.173 | −0.737 | 1.614 | 0.071 | 0.063 | 0.074 | −0.878 | – | – | – | – | – | – | – | –
16 | COc1ccccc1OCCNCC(O)COc1cccc2[nH]c3ccccc3c12 (stereo not shown) [carvedilol] | – | – | – | – | – | – | – | −5.765 | 0.453 | −2.321 | −2.817 | −1.246 | −2.460 | −3.375 | –
17 | CCCCNc1ccc(C(=O)OCCN(C)C)cc1 [tetracaine] | −0.809 | −0.370 | −0.042 | −0.058 | −0.584 | −0.246 | −0.119 | – | – | – | – | – | – | – | –
18 | CO[C@H]1/C=C/O[C@@]2(C)Oc3c(C)c(O)c4c(O)c(c(/C=N/N5CCN(C)CC5)c(O)c4c3C2=O)NC(=O)/C(C)=C\C=C\[C@H](C)[C@H](O)[C@@H](C)[C@@H](O)[C@@H](C)[C@H](OC(C)=O)[C@@H]1C [rifampicin] | −1.866 | −0.591 | −0.224 | −0.071 | −0.620 | −0.270 | −0.918 | – | – | – | – | – | – | – | –
19 | CN(C)CCC=C1c2ccccc2COc2ccccc21 [doxepin] | −1.279 | 0.584 | 0.478 | −0.608 | −0.886 | −0.746 | −0.780 | – | – | – | – | – | – | – | MTT (composite Z-score vs DMSO) [1]: −0.903; Viability (composite Z-score vs DMSO) (C2C12 myotubes): −0.220; ROS (composite Z-score vs DMSO) (reactive oxygen species): 1.002; nucOX (composite Z-score vs DMSO) (nuOXPHOS transcripts): 0.237; mitoOX (composite Z-score vs DMSO) (mtOXPHOS transcripts): 0.142; GE-HTS (composite Z-score vs DMSO) (OXPHOS gene expression): 0.233; ΔΨm (composite Z-score vs DMSO) [2]: −0.646
20 | CCN[C@H]1C[C@H](C)S(=O)(=O)c2sc(S(N)(=O)=O)cc21 [dorzolamide] | – | – | – | – | – | – | – | – | – | – | – | – | – | – | MTT (composite Z-score vs DMSO) [1]: −0.323; Viability (composite Z-score vs DMSO) (C2C12 myotubes): −0.030; ROS (composite Z-score vs DMSO) (reactive oxygen species): −0.044; nucOX (composite Z-score vs DMSO) (nuOXPHOS transcripts): 0.975; mitoOX (composite Z-score vs DMSO) (mtOXPHOS transcripts): 0.829; GE-HTS (composite Z-score vs DMSO) (OXPHOS gene expression): 0.990; ΔΨm (composite Z-score vs DMSO) [2]: 0.180
21 | CC[C@H]1CN2CCc3cc(OC)c(OC)cc3[C@@H]2C[C@@H]1C[C@H]1NCCc2cc(OC)c(OC)cc21 [Emetine, reference compound] | −3.433 | −4.480 | −2.661 | 2.313 | −4.790 | −0.023 | 1.294 | – | – | – | – | – | – | – | MTT (composite Z-score) [1]: −3.535; Viability (composite Z-score) (C2C12 myotubes): −1.392; ROS (composite Z-score) (reactive oxygen species): −3.162; nucOX (composite Z-score) (nuOXPHOS transcripts): 1.934; nucOXPHOS Z (nuOXPHOS transcripts): 2.31 and 1.93; mitoOX (composite Z-score) (mtOXPHOS transcripts): −4.145; GE-HTS (composite Z-score) (OXPHOS gene expression): −0.052; ΔΨm (composite Z-score) [2]: 1.463
22 | CCCN(CCC)C(=O)C(CCC(=O)O)NC(=O)c1ccccc1 (stereo not shown) [proglumide] | −0.599 | 0.138 | 0.068 | −0.787 | 0.094 | −0.513 | −0.312 | – | – | – | – | – | – | – | –
23 | COc1cc(N)c(Cl)cc1C(=O)NC1CCN(CCCOc2ccc(F)cc2)CC1OC (stereo not shown) [cisapride] | – | – | – | – | – | – | – | – | – | – | – | – | – | – | MTT [1, 4]: 0.523; Viability (C2C12 myotubes; [4]): 0.305; ROS (reactive oxygen species; [4]): 2.245; nucOX (nuOXPHOS transcripts; [4]): −0.231; mitoOX (mtOXPHOS transcripts; [4]): −0.468; GE-HTS (OXPHOS gene expression; [4]): −0.329; ΔΨm [2, 4]: 0.763
24 | CNCCc1ccccn1 [betahistine] | −0.984 | −0.129 | 0.557 | −0.111 | −0.280 | −0.175 | −0.896 | – | – | – | – | – | – | – | –
25 | CC(=O)N[C@@H](CC(=O)N[C@@H](CCC(=O)O)C(=O)O)C(=O)O [spaglumic acid] | −0.089 | 0.790 | −0.046 | 0.963 | 1.087 | 1.074 | 0.160 | – | – | – | – | – | – | – | –
26 | CC(C)(C)C(=O)C(Oc1ccc(Cl)cc1)n1cncn1 (stereo not shown) [triadimefon] | −1.650 | −0.420 | 0.592 | −0.198 | 0.047 | −0.142 | −0.530 | – | – | – | – | – | – | – | –
27 | CC(C)NCC(O)c1ccc(NS(C)(=O)=O)cc1 (stereo not shown) [sotalol] | – | – | – | – | – | – | – | −0.390 | −0.754 | 0.305 | 0.885 | 0.299 | 0.744 | 0.105 | –
